Source: US9572855B2, “Combination anti-estrogen receptor cancer therapy using MUC1 peptides and chemotherapeutics” (DANA-FARBER CANCER INSTITUTE, INC., priority 2013, dated 2017)

Test system: BT-474/MUC1shRNA cells
Assay: cells
Details: Homo sapiens
Excerpt: The multiple effect-level isobologram analyses are shown for the ED50 (X), ED75 (+) and ED90 (⊙) values.

CC/C(=C(\c1ccccc1)c1ccc(OCCN(C)C)cc1)c1ccccc1 [tamoxifen]
IC50: 16.6 µM
